Binding data for eight molecules are collected here from doi:10.1101/2020.08.13.249029.

Sequences of proteins named here, by UniProt entry; tags and fusion partners are left off.
UniProt Q13185: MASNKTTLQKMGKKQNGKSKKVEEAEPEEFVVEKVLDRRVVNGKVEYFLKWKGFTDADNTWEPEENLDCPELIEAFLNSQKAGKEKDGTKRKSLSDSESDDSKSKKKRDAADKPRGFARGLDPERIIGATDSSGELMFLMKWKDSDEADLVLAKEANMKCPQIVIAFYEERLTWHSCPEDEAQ
UniProt P45973: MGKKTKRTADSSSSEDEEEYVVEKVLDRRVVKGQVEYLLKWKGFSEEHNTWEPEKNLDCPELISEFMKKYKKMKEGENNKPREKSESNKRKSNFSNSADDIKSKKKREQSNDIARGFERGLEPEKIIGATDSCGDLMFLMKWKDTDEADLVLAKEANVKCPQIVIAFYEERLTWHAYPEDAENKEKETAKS
UniProt Q92786: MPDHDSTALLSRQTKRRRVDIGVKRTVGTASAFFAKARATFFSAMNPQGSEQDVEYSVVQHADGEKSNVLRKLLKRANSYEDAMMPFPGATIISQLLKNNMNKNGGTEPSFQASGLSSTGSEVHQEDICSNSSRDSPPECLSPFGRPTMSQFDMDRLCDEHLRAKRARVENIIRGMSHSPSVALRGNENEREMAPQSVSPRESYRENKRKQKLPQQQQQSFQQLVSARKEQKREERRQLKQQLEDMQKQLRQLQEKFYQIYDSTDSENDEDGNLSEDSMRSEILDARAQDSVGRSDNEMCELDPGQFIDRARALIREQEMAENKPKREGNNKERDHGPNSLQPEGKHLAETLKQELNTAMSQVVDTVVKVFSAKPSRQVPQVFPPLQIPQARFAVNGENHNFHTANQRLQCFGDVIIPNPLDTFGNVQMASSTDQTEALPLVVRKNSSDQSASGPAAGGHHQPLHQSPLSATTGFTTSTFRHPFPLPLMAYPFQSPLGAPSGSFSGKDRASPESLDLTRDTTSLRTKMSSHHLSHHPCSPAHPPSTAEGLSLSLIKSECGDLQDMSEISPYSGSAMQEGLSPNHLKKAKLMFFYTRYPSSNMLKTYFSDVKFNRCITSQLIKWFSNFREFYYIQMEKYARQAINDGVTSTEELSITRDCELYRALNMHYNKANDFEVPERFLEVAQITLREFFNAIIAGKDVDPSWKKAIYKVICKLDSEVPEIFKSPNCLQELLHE
UniProt Q8TAQ2: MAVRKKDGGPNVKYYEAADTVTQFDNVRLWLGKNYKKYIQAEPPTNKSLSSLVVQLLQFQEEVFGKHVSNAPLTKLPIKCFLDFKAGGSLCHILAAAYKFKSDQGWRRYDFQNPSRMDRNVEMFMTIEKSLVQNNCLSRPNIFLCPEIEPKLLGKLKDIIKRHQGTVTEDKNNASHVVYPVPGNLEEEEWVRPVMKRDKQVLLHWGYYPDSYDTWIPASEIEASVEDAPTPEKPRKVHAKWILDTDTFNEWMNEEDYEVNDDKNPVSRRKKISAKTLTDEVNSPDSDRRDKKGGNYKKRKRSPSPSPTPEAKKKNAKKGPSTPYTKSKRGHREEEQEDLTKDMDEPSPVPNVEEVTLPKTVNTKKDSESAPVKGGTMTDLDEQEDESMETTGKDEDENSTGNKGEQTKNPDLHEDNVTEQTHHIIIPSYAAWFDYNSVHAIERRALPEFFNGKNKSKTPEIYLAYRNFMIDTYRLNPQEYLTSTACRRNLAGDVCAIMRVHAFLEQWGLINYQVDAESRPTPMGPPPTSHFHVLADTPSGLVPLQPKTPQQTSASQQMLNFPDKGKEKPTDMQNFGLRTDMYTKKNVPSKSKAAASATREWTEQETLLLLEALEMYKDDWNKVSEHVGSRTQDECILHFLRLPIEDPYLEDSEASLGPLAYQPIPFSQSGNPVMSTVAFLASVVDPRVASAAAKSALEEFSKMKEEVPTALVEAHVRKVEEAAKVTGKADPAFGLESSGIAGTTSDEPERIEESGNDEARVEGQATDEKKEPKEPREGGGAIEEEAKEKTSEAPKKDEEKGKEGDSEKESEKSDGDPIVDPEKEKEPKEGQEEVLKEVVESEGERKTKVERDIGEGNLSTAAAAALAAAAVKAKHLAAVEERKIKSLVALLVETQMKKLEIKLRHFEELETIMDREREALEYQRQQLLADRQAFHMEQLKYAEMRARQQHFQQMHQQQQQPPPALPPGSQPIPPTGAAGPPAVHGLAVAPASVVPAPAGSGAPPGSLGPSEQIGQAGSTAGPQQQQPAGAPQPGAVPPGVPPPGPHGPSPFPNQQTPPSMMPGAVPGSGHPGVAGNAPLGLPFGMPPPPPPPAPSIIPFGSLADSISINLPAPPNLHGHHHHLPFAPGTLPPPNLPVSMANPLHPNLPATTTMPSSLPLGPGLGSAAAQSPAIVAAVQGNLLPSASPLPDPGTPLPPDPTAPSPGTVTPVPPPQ
UniProt P15884: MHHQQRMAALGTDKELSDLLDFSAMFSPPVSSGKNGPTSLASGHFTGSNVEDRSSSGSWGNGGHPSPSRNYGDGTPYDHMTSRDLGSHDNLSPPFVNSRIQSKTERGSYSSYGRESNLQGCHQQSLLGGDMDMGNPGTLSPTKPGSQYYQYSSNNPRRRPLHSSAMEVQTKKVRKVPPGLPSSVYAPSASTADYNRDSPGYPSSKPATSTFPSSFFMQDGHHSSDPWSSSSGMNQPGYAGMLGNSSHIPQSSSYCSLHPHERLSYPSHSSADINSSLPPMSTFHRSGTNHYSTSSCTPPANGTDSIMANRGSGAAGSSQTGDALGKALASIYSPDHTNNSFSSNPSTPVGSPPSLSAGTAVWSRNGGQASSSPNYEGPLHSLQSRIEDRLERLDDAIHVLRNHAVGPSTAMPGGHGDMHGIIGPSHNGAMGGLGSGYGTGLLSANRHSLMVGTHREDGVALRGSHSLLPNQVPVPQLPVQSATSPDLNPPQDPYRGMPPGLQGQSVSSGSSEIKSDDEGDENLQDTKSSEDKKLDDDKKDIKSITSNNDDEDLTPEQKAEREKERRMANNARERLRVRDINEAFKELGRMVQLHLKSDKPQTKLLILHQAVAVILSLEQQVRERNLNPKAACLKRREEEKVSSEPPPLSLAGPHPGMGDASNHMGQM
UniProt Q99081: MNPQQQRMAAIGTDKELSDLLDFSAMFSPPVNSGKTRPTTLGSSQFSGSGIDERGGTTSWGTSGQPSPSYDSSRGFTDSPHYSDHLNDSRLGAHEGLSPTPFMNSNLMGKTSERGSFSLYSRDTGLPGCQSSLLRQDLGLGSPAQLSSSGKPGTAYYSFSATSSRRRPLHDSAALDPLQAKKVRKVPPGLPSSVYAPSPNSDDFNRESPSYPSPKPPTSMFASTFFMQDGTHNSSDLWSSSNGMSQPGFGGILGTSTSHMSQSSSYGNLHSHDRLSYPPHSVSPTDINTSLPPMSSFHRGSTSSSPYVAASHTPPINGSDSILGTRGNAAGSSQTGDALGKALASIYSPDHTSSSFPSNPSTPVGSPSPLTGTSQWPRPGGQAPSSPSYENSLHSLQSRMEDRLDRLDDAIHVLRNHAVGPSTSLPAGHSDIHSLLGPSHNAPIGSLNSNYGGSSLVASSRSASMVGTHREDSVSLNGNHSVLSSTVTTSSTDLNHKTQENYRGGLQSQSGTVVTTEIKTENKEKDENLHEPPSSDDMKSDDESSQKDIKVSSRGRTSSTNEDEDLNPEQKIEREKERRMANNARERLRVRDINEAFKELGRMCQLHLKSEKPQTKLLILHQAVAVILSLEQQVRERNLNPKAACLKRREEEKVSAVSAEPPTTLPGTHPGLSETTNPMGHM
UniProt Q13263: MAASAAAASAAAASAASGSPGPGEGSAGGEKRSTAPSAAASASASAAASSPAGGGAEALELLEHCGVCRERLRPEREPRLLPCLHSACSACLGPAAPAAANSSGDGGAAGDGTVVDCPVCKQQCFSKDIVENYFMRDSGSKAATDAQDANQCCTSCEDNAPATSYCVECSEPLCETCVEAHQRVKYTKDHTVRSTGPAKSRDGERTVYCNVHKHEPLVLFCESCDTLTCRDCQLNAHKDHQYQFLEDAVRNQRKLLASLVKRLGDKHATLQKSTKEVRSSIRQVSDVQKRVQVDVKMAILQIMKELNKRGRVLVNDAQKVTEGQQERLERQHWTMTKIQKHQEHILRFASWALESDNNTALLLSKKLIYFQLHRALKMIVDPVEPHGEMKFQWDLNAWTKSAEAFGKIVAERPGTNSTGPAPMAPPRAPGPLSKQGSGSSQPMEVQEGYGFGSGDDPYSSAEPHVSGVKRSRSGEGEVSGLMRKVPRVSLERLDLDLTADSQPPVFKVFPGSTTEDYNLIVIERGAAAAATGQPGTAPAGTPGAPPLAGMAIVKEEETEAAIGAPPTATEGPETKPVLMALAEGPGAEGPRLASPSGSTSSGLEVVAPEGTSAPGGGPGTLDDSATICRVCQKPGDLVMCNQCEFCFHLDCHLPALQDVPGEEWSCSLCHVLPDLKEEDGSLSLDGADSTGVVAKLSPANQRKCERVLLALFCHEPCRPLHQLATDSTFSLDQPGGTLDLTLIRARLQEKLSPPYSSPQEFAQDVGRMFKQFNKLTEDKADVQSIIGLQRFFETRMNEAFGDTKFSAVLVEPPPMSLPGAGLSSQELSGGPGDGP

No constants are given. Whether binding was seen depends on the method and setting. In cells and extracts the contact can be indirect. Here binding means that the protein was enriched with, or labelled near, the bait; the list need not be complete.

In this test the target is T1, ASCL1 (human (endogenous in NCI-H2107)) (UniProt P50553).
T1 sequence: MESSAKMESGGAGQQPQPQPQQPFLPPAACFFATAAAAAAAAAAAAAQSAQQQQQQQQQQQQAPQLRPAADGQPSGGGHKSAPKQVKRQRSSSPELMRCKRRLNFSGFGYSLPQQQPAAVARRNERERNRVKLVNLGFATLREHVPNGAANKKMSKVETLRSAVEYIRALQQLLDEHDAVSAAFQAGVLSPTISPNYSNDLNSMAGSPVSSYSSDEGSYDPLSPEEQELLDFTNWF
The test is described as follows: affinity purification with mass spectrometry.

Regarding CBX3 (from UniProt Q13185 1-183), the binding result is recorded as “binds”.

In the case of CBX5 (from UniProt P45973 1-191), the binding result is on record as “binds”.

Turning to PROX1 (from UniProt Q92786 1-737), the binding entry was “binds”.

Regarding SMARCC2 (from UniProt Q8TAQ2 1-1214), the binding result is “binds”.

On to TCF4 (from UniProt P15884 1-667), for which the binding result was “binds”.

Regarding TCF12 (from UniProt Q99081 1-682), the binding result is reported as “binds”.

As for TRIM28 (from UniProt Q13263 1-835), the binding entry is “binds”.

B1: NKX2-1 (protein, UniProt P43699 1-371)
chain: MSMSPKHTTPFSVSDILSPLEESYKKVGMEGGGLGAPLAAYRQGQAAPPTAAMQQHAVGHHGAVTAAYHMTAAGVPQLSHSAVGGYCNGNLGNMSELPPYQDTMRNSASGPGWYGANPDPRFPAISRFMGPASGMNMSGMGGLGSLGDVSKNMAPLPSAPRRKRRVLFSQAQVYELERRFKQQKYLSAPEREHLASMIHLTPTQVKIWFQNHRYKMKRQAKDKAAQQQLQQDSGGGGGGGGTGCPQQQQAQQQSPRRVAVPVLVKDGKPCQAGAPAPGAASLQGHAQQQAQHQAQAAQAAAAAISVGSGGAGLGAHPGHQPGSAGQSPDLAHHAASPAALQGQVSSLSHLNSSGSDYGTMSCSTLLYGRTW
Consider B1, for which the binding entry is on record as “binds”.
